# In PubChem BioAssay AID1439 (NMMLSC, 2008):
# By UniProt entry, the sequences of proteins in these tests, tags left out.
# UniProt P09471, whole entry, looked up: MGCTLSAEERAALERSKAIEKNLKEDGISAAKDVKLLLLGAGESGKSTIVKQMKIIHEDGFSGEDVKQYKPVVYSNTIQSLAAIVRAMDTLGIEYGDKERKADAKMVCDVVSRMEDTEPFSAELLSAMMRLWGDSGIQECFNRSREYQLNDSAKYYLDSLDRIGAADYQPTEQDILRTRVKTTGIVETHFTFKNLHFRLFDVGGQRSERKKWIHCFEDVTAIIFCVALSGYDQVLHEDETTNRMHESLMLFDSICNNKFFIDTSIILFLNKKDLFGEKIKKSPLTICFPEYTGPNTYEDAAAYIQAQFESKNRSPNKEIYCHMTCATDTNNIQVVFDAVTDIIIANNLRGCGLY
# Hit rate of the full screen: of about 220,000 compounds, about 770 (0.35%) were called active. The inconclusive results got no clear call from the source; some entries with a clear call stand among them for comparison. Cut-off read from the data, not from the text of the source: active = binding response below about 49% or above about 150%; inconclusive = no clear call, values can overlap the other calls; inactive = in between.
# Biological target: Guanine nucleotide-binding protein G(o) subunit alpha (Homo sapiens) (UniProt P09471)
# Experiment: RGS7-Galphao binding modulators, primary screen, biochemical, multiplexed bead flow cytometry (AID 1439);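 note: fluorescent Galphao held in activated GDP-AlF4 state binding bead-coupled RGS7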
# Conditions: at 10 µM, actives lie on both sides
row,Structure (SMILES),binding response (% of control)
1,Cc1ccc(S(=O)(=O)N(Cc2cc3ccccc3[nH]c2=O)c2cccc(C)c2)cc1,inconclusive: -104%
2,Cn1c(=O)c2cc(S(=O)(=O)NC(C(=O)NCc3ccccn3)c3ccccc3)ccc2n(C)c1=O (configuration not stated),inactive: 104%
3,CC(C)(C)N(Cc1ccccc1)C(=O)c1ccc(Br)o1,inconclusive: 103%
4,CC1CC(C)CN(CC(C)(C)NS(=O)(=O)c2ccc(Cl)cc2)C1 (configuration not stated),inactive: 101%
5,Cn1c(=O)oc2cc(S(=O)(=O)N3CCC(C(=O)NCCc4ccccc4)CC3)ccc21,inconclusive: 152%
6,CC1(c2ccc(OC(F)F)cc2)NC(=O)N(CC(=O)Nc2cccc(S(N)(=O)=O)c2)C1=O (configuration not stated),inconclusive: 111%
7,Cc1ccc(-c2nnc(N3CC(C)OC(C)C3)c3ccccc23)cc1 (configuration not stated),inactive: 91.2%
8,Nc1c(C(=O)N/N=C/c2ccc(F)cc2)oc2nc(-c3ccccc3)cc(-c3ccco3)c12,inconclusive: 26.9%
9,CC(C1CC2CCC1C2)N1CC(O)=C(c2nc3ccccc3[nH]2)C1=N (configuration not stated),inconclusive: 171%
10,Fc1ccc2nc(N3CCOCC3)sc2c1,inconclusive: 109%
11,CCCCc1ccc(S(=O)(=O)Nc2ccc(C)c(NS(C)(=O)=O)c2)cc1,inconclusive: 109%
12,OCCCNc1cc(-c2ccnc(Nc3cccc(Cl)c3)n2)ccn1,inconclusive: 107%
13,CC(C)c1ccc(/C=C/C(=O)NCc2ccc(S(N)(=O)=O)cc2)cc1,inconclusive: 133%
14,CCOc1ccc(N(CC(=O)NN=C2CCCC2)S(C)(=O)=O)cc1,inactive: 103%
15,Cc1cc(C(=O)N/N=C/c2cc(Cl)cc([N+](=O)[O-])c2O)n[nH]1,inconclusive: -235%
16,CSCCC(NC(=O)c1ccc(C(C)(C)C)cc1)C(=O)O (configuration not stated),inactive: 101%
17,CCC12CN(C(=O)c3ccc([N+](=O)[O-])cc3)CC(CC)(CN(C(=O)c3ccc([N+](=O)[O-])cc3)C1)C2=O,inconclusive: 84.9%
18,Cn1c(=O)c2[nH]c(N=NNc3ccccc3F)nc2n(C)c1=O,inconclusive: 47%
19,CC(=O)C1=C(O)C(=O)N(c2ccc(Br)cn2)C1c1ccc(F)cc1 (configuration not stated),inconclusive: 128%

row,Structure (SMILES),binding response (% of control)
1,O=C(O)CCCC(=O)Nc1ccc(Oc2cccc(C(F)(F)F)c2)nc1,inconclusive: 108%
2,CCCCCCC(C)OC(=O)Nc1cccc2ccccc12 (configuration not stated),inconclusive: 55.7%
3,NNC(=O)CSc1nnnn1-c1ccccc1,inconclusive: 224%
4,O=S(=O)(Nc1cccc(-c2ccc3nncn3n2)c1)c1cccs1,inconclusive: 104%
5,Clc1ccc(-c2nnc(C3CC3)o2)cc1,inconclusive: 90.4%
6,O=C(NCCc1ccccc1)Nc1ccc2c(c1)OCO2,inconclusive: 88.4%
7,CCOP(=O)(c1ccc(N(C)C)cc1)C(O)c1cccnc1 (configuration not stated),inconclusive: 106%
8,CCOC(=O)c1cnc(C(F)(F)F)nc1Oc1ccccc1,inconclusive: 225%
9,COC(=O)Nc1nnc(-c2ccc(OC)cc2)s1,inconclusive: -2.78%
10,O=C(CO/N=C/c1ccc(Cl)cc1Cl)NNC(=O)c1cccc(Cl)c1,inconclusive: 110%
11,COc1ccc(-c2ccc(C)cc2)cc1[C@H]1[C@H]2C=CC[C@@H](C)[C@@H]2C(=O)N1Cc1ccccc1,inconclusive: 106%
12,CC1CC(C)CN(C(=O)Nc2ccccc2F)C1 (configuration not stated),inconclusive: 115%
13,N#C/C(=C(/O)CO/N=C/c1ccccc1Cl)c1nc2ccccc2[nH]1,inconclusive: 91.2%
14,CC(=O)c1sc(C(C)(C)C)cc1NC(=O)CCC(=O)O,inconclusive: 124%
15,CC(=O)C1C(c2ccc(F)cc2)c2c(noc2C)CC1(C)O (configuration not stated),inconclusive: 101%
16,O=C1C2C(c3ccccc3)CC=CC2[C@H](c2cccc([N+](=O)[O-])c2)N1Cc1ccccc1 (some centres not stated),inconclusive: 97.3%
17,CCOC(=O)c1sc(-c2ccccc2)nc1C,inconclusive: 86.2%
18,COc1cccc(C2C(C(=O)Nc3nc4ccccc4s3)=C(C)NC3=C2C(=O)CC(C)(C)C3)c1OC (configuration not stated),inactive: 101%
19,CNC(=O)NC(=O)C(C)N1CCN(C/C=C/c2ccccc2)CC1 (configuration not stated),inconclusive: 89.5%

# Individual results from the list:
# `CC1CC(C)CN(C(=O)Nc2ccccc2F)C1` (configuration not stated) – binding response (% of control): inconclusive: 115%
# `CCOP(=O)(c1ccc(N(C)C)cc1)C(O)c1cccnc1` (configuration not stated) – binding response (% of control): inconclusive: 106%
# `CC(=O)c1sc(C(C)(C)C)cc1NC(=O)CCC(=O)O` – binding response (% of control): inconclusive: 124%

# Remaining list, next part

row,Structure (SMILES),binding response (% of control)
1,COCCn1cnc2c(c1=O)c1nc3ccccc3nc1n2/N=C/c1ccco1,inconclusive: 120%
2,Cn1cnnc1SCC(=O)Nc1cccc(S(=O)(=O)N2CCOCC2)c1,inactive: 109%
3,O=C(Nc1ncn[nH]1)c1ccccc1O,inconclusive: 74.2%
4,O=C(NNc1c2ccccc2nc2ccccc12)C12CC3CC(CC(C3)C1)C2,inconclusive: 133%
5,O=C1NC2(Nc3ccccc31)C(=O)Nc1ccc(Br)cc12 (configuration not stated),inconclusive: 116%
6,Cc1ccc2cc(NC(=O)Cc3ccccc3)ccc2n1,inconclusive: 125%
7,Cc1cc(C)n2nc(S(=O)(=O)NC(C)(C)C)nc2n1,inactive: 107%
8,CC1C(=O)OC(c2ccc(Br)cc2)C(C)(C)C1=O (configuration not stated),inconclusive: 88.3%
9,Cc1cc(N2C(=O)C(O)=C(C(=O)c3cccs3)C2c2cccc(Br)c2)no1 (configuration not stated),inconclusive: 86.4%
10,Cc1ccc(-c2nn(-c3ccccc3)cc2/C=N/n2c(-c3ccncc3)n[nH]c2=S)cc1,inconclusive: 84.4%
11,O=C(Cn1cnc2cc([N+](=O)[O-])ccc2c1=O)NCCc1ccc(Cl)cc1,inconclusive: 101%
12,O=C(O)c1c2c(nc3ccccc13)/C(=C/c1ccc(O)cc1)CCC2,inconclusive: 88.8%
13,CCOc1ccccc1NC(=O)COC(=O)c1cc[n+]([O-])cc1,inconclusive: 109%
14,Nc1scn[n+]1Cc1cccc2cccnc12,inconclusive: 107%
15,CCC(C)C(=O)Nc1nc2ccc(OC)cc2s1 (configuration not stated),inconclusive: 88.4%
16,N#C/C(=C\c1cccc(NC(=O)c2ccccc2Cl)c1)C(=O)NCCc1ccccc1,inactive: 99.4%
17,Cc1ccc(C(=O)OCC(=O)N2CCc3ccccc32)cc1,inactive: 115%
18,CSc1nc2ccc(NS(=O)(=O)c3cccc(Cl)c3Cl)cc2s1,inactive: 85%
19,Cc1ccc(S(=O)(=O)N/N=C\c2cc([N+](=O)[O-])ccc2Cl)cc1,inactive: 105%
